The test system of this assay is P388 leukemia ip, CD2F1 mice, survival T/C. Put plainly: NCI In Vivo Anticancer Drug Screen. Data for tumor model P388 Leukemia (intraperitoneal) in CD2F1 (CDF1) mice. The note with it: T/C endpoint: median survival time, higher T/C = longer survival.
[1] abbreviates: dose: 200.0 mg/kg/injection, schedule: Q01DX005 (ip), vehicle: saline with Tween-80.
The mark [2] stands for this setting: dose: 30.0 mg/kg/injection, schedule: Q01DX005 (ip), vehicle: saline with Tween-80.
Setting [3] is: dose: 60.0 mg/kg/injection, schedule: Q01DX005 (ip), vehicle: saline with Tween-80.
Where [4] appears, read: dose: 120.0 mg/kg/injection, schedule: Q01DX005 (ip), vehicle: saline with Tween-80.
Where [5] appears, read: dose: 240.0 mg/kg/injection, schedule: Q01DX005 (ip), vehicle: saline with Tween-80.
Where [6] appears, read: dose: 100.0 mg/kg/injection, schedule: Q01DX009 (ip), vehicle: saline with Tween-80.
The mark [7] stands for this setting: dose: 200.0 mg/kg/injection, schedule: Q01DX009 (ip), vehicle: saline with Tween-80.
The mark [8] stands for this setting: dose: 200.0 mg/kg/injection, schedule: Q01DX005 (ip), vehicle: Klucel (hydroxypropylcellulose) (HPC).
The mark [9] stands for this setting: dose: 300.0 mg/kg/injection, schedule: Q01DX005 (ip), vehicle: Klucel (hydroxypropylcellulose) (HPC).

SMILES strings stand for the structures. The list shows only some results of the screen, not a fair sample: it is rich in T/C values a quarter to a half above the control, in often repeated tests (any T/C) and in doses without a T/C. Further doses and runs are listed elsewhere. T/C: endpoint of the treated group in % of that of the vehicle group. Some doses have a count of surviving animals in place of a T/C: the source holds a T/C of zero for them, seemingly a mark for toxic or unscored doses. Some survivor counts are full or nearly so, which does not show that the dose was tolerated: survival well below the control is almost never listed, so the zero probably covers shortened survival too. Survivors were counted at the toxicity check, usually on the fifth day, unless a day is given; later deaths do not show. Schedules are NCI's codes, taken here to give the interval after Q, in days (D) or hours (H), and the number of doses after X. Where survival is the endpoint, the PubChem record calls one and a half times the control and up active, and a quarter to a half above the control has no call in these data; cut-offs in other NCI protocols can differ. Some entries hold several experiments; their values stand side by side, smallest first. Brackets with × give the number of equal values in this list. Some T/C values carry the count of animals alive at the toxicity check (mostly the fifth day); where none is given, no animal had died by that day.

As for `CC(=O)OC1CC(n2cc(C)c(=O)[nH]c2=O)OC1COP(=O)(N1CC1)N1CC1` (centres undefined), the T/C (dose: 200.0 mg/kg/injection, schedule: Q04DX003 (ip), vehicle: saline with Tween-80) is 142 % of control.

Consider `CC1CCC(=O)CN1Cc1ccccc1` (centres undefined), for which, under setting [1], the survivor count is reported as 3 of 6.

Consider `CN(C)C(=O)n1cnc([N+](=O)[O-])c1`, for which the survivor count (dose: 400.0 mg/kg/injection, schedule: Q01DX001 (ip), vehicle: saline with Tween-80) is 3 of 6.

Take `COc1cc(N)ccc1NC(=O)c1ccccc1`: the survivor count (dose: 25.0 mg/kg/injection, schedule: Q01DX009 (ip), vehicle: saline with Tween-80) is 3 of 6.

Regarding `CCN(CC)CCCC(C)Nc1cc(/C=C/c2ccc(Cl)cc2)nc2ccc(N(C)C)cc12` (centres undefined), the survivor count is on record as 2 of 6 under setting [2], 1 of 6 under setting [3], 0 of 6 under setting [4] and 0 of 6 under setting [5].

With `O=c1[nH]c2cc([N+](=O)[O-])ccc2nc1/C=C(\O)c1ccc(F)cc1`, the survivor count (dose: 240.0 mg/kg/injection, schedule: Q01DX005 (ip), vehicle: Klucel + Tween-80) is listed as 6 of 6.

Take `CCCCC1CN=C(OCC)N1` (centres undefined): the survivor count is, setting by setting: (dose: 25.0 mg/kg/injection, schedule: Q01DX005 (ip), vehicle: saline with Tween-80) 2 of 6; (dose: 50.0 mg/kg/injection, schedule: Q01DX005 (ip), vehicle: saline with Tween-80) 0 of 6; (dose: 100.0 mg/kg/injection, schedule: Q01DX005 (ip), vehicle: saline with Tween-80) 0 of 6; under setting [1], 0 of 6.

Turning to `CCCN=C(N)N=C(N)N`, the survivor count is, setting by setting: (dose: 50.0 mg/kg/injection, schedule: Q01DX009 (ip), vehicle: saline with Tween-80) 5 of 6; under setting [6], 5 of 6; under setting [7], 3 of 6.

With `Cc1ccccc1SSc1ccccc1C`, the T/C under setting [6] was 126 % of control. Moreover, the survivor count under setting [7] was 2 of 6.

As to `COc1nc(C(Cl)(Cl)Cl)c(Cl)c(OC)c1Cl`, the T/C by setting is: (dose: 37.0 mg/kg/injection, schedule: Q01DX005 (ip), vehicle: Klucel (hydroxypropylcellulose) (HPC), evaluated on day 30) 109 and 141 % of control; (dose: 37.0 mg/kg/injection, schedule: Q01DX005 (ip), vehicle: Klucel (hydroxypropylcellulose) (HPC), evaluated on day 45) 122 and 130 % of control; (dose: 37.0 mg/kg/injection, schedule: Q01DX005 (ip), vehicle: Klucel (hydroxypropylcellulose) (HPC), evaluated on day 60) 119 % of control; (dose: 40.0 mg/kg/injection, schedule: Q01DX005 (ip), vehicle: other, evaluated on day 30) 138 % of control; (dose: 40.0 mg/kg/injection, schedule: Q01DX005 (ip), vehicle: other, evaluated on day 45) 125 % of control; (dose: 40.0 mg/kg/injection, schedule: Q01DX005 (iv), vehicle: other) 127 % of control. Further, the T/C was 100, 100 [4 of 6 alive], 101, 118, 128, 130 % of control (dose: 50.0 mg/kg/injection, schedule: Q01DX005 (ip), vehicle: Klucel (hydroxypropylcellulose) (HPC), evaluated on day 30); 115, 116, 117, 125, 130, 132, 133, 135 % of control (dose: 50.0 mg/kg/injection, schedule: Q01DX005 (ip), vehicle: Klucel (hydroxypropylcellulose) (HPC), evaluated on day 45); 120 % of control (dose: 50.0 mg/kg/injection, schedule: Q01DX005 (ip), vehicle: Klucel (hydroxypropylcellulose) (HPC), evaluated on day 46); 124 and 126 % of control (dose: 50.0 mg/kg/injection, schedule: Q01DX005 (ip), vehicle: Klucel (hydroxypropylcellulose) (HPC), evaluated on day 60); 141 % of control (dose: 60.0 mg/kg/injection, schedule: Q01DX005 (ip), vehicle: other, evaluated on day 30); 138 % of control (dose: 60.0 mg/kg/injection, schedule: Q01DX005 (ip), vehicle: other, evaluated on day 45). Moreover, the T/C is, setting by setting: (dose: 67.0 mg/kg/injection, schedule: Q01DX005 (ip), vehicle: Klucel (hydroxypropylcellulose) (HPC), evaluated on day 30) 110 and 155 % of control; (dose: 67.0 mg/kg/injection, schedule: Q01DX005 (ip), vehicle: Klucel (hydroxypropylcellulose) (HPC), evaluated on day 45) 111, 121, 132, 137, 140, 146, 148, 150 % of control; (dose: 67.0 mg/kg/injection, schedule: Q01DX005 (ip), vehicle: Klucel (hydroxypropylcellulose) (HPC), evaluated on day 46) 120 % of control; (dose: 67.0 mg/kg/injection, schedule: Q01DX005 (ip), vehicle: Klucel (hydroxypropylcellulose) (HPC), evaluated on day 60) 142 and 153 % of control; (dose: 90.0 mg/kg/injection, schedule: Q01DX005 (ip), vehicle: Klucel (hydroxypropylcellulose) (HPC), evaluated on day 30) 111, 157, 160, 173 % of control; (dose: 90.0 mg/kg/injection, schedule: Q01DX005 (ip), vehicle: Klucel (hydroxypropylcellulose) (HPC), evaluated on day 45) 103, 130, 134, 136, 151, 153, 155, 158 % of control (2×). For the same molecule, the T/C reads like this: (dose: 90.0 mg/kg/injection, schedule: Q01DX005 (ip), vehicle: Klucel (hydroxypropylcellulose) (HPC), evaluated on day 46) 116 % of control; (dose: 90.0 mg/kg/injection, schedule: Q01DX005 (ip), vehicle: Klucel (hydroxypropylcellulose) (HPC), evaluated on day 60) 159 and 167 % of control; (dose: 90.0 mg/kg/injection, schedule: Q01DX005 (ip), vehicle: other) 149 % of control [9 of 10 alive]; (dose: 90.0 mg/kg/injection, schedule: Q01DX005 (iv), vehicle: other) 144 % of control; (dose: 100.0 mg/kg/injection, schedule: Q01DX005 (ip), vehicle: Klucel (hydroxypropylcellulose) (HPC)) 115, 121, 156, 163 % of control; (dose: 120.0 mg/kg/injection, schedule: Q01DX005 (ip), vehicle: Klucel (hydroxypropylcellulose) (HPC), evaluated on day 45) 98, 145, 152, 158, 179, 191 % of control. For the same molecule, the T/C (dose: 120.0 mg/kg/injection, schedule: Q01DX005 (ip), vehicle: Klucel (hydroxypropylcellulose) (HPC), evaluated on day 46) is 134 % of control; the T/C (dose: 120.0 mg/kg/injection, schedule: Q01DX005 (ip), vehicle: Klucel (hydroxypropylcellulose) (HPC), evaluated on day 60) is 177 % of control; the T/C (dose: 135.0 mg/kg/injection, schedule: Q01DX005 (ip), vehicle: Klucel (hydroxypropylcellulose) (HPC)) was 131 % of control; the T/C under setting [8] is on record as 102, 115, 147, 194 % of control; the T/C (dose: 202.3 mg/kg/injection, schedule: Q01DX005 (ip), vehicle: Klucel (hydroxypropylcellulose) (HPC)) was 138 % of control. The survivor count is 9 of 10 under setting [8]; 9 of 10 under setting [9]; 8 of 10 (dose: 303.3 mg/kg/injection, schedule: Q01DX005 (ip), vehicle: Klucel (hydroxypropylcellulose) (HPC)); 4 of 6 (dose: 400.0 mg/kg/injection, schedule: Q01DX005 (ip), vehicle: Klucel (hydroxypropylcellulose) (HPC)).

As to `CN1CCN(C#CC(=O)c2ccc(Cl)cc2)CC1`, the survivor count was 5 of 6 under setting [2], 0 of 6 under setting [3], 0 of 6 under setting [4] and 0 of 6 under setting [5].

In the case of `COc1cc([C@@H]2c3cc4c(cc3[C@H](SC(=N)N)[C@H]3COC(=O)[C@H]23)OCO4)cc(OC)c1OC`, the survivor count is recorded as 0 of 6 (dose: 80.0 mg/kg/injection, schedule: Q01DX010 (ip), vehicle: carboxymethylcellulose (CMC)) and 0 of 6 (dose: 160.0 mg/kg/injection, schedule: Q01DX010 (ip), vehicle: carboxymethylcellulose (CMC)).

Regarding `Cc1cnc(C)c2ccccc12`, under setting [7], the survivor count is 0 of 6.

As for `C/C=C/c1cc(OC)c2c(c1)[C@H](C)C(c1ccc(O)c(OC)c1)O2` (some centres undefined), under setting [9], the survivor count is 5 of 6.
